Measured values as given in publication doi:10.1101/2022.12.30.522309.
No constants are given. Whether binding was seen depends on the method and setting. In cells and extracts the contact can be indirect. Some entries that bind do so weakly or less than the wild type.

Amino acid sequences for entries named in this document (tags omitted).
UniProt P32121: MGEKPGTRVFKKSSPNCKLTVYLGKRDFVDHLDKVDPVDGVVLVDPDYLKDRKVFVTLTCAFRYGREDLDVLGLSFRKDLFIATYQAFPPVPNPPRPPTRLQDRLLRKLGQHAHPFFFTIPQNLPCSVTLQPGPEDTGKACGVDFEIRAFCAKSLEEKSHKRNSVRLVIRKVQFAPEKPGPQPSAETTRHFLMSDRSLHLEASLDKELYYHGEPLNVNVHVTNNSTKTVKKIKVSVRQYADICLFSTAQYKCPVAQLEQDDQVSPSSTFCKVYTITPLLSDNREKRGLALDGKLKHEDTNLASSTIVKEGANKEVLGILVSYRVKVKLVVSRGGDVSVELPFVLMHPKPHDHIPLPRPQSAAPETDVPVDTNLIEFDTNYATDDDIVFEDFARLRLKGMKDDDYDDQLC

Target: T1, FFA2R-LgBiT (human) (UniProt O15552)
T1 sequence: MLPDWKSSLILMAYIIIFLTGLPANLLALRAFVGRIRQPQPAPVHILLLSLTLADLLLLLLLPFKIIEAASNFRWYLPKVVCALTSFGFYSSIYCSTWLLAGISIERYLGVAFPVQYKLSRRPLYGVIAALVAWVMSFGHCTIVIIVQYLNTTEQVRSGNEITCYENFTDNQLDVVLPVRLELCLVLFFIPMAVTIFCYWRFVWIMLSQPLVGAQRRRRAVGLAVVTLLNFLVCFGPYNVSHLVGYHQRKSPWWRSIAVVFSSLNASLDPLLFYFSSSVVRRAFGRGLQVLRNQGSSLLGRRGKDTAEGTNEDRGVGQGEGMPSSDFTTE
Experiment: split reporter

- binding: binds
Substance: SmBiT-β-arrestin2 (from UniProt P32121 1-409)
